Sequences of proteins named here, by UniProt entry; tags and fusion partners are left off. A change or cut given only in a name is not applied to a line headed by its entry.
UniProt O95835: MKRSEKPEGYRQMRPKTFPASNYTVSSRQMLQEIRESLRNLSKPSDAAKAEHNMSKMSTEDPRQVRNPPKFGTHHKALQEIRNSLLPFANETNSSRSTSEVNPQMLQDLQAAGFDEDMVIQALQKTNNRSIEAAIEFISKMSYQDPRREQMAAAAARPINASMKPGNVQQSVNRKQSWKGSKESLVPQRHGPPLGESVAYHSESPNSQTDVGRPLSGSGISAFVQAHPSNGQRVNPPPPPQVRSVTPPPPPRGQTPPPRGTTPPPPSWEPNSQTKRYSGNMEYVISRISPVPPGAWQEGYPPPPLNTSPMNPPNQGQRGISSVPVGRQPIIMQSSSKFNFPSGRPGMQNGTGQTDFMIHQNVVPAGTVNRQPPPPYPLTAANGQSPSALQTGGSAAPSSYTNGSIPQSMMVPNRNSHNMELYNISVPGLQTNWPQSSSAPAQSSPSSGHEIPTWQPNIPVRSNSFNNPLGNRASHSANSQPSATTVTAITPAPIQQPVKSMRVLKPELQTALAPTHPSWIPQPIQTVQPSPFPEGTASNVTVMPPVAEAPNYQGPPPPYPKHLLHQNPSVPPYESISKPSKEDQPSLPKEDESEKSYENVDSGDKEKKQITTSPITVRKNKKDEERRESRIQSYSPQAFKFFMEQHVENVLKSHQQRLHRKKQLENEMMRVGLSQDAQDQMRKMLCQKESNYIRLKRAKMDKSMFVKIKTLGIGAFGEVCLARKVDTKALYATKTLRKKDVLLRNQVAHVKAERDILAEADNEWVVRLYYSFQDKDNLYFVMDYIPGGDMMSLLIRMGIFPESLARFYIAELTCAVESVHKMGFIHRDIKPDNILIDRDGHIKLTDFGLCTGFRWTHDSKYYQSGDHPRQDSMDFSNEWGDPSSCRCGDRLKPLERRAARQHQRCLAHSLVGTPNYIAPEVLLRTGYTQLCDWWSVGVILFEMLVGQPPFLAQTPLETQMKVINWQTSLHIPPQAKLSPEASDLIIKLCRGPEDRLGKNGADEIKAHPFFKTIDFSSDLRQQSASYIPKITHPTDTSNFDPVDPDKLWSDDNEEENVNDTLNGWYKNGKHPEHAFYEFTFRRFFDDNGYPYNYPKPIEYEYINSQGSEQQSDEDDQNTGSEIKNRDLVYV

In paper PMC9402307:

Molecular target: Large tumor suppressor kinase 1 (human (endogenous in MDA-MB-231 and MDA-MB-453)) (UniProt O95835)
Assay: co-IP; lysates of MDA-MB-231 and MDA-MB-453 cells, precleared with protein A/G magnetic beads; immunoprecipitation with anti-LATS1 antibody at 4°C overnight, protein A/G magnetic beads, Western blot for TRIM65

binding: binds
B1: Tripartite motif containing 65 (protein, UniProt Q6PJ69 1-517)
chain: MAAQLLEEKLTCAICLGLYQDPVTLPCGHNFCGACIRDWWDRCGKACPECREPFPDGAELRRNVALSGVLEVVRAGPARDPGPDPGPGPDPAARCPRHGRPLELFCRTEGRCVCSVCTVRECRLHERALLDAERLKREAQLRASLEVTQQQATQAEGQLLELRKQSSQIQNSACILASWVSGKFSSLLQALEIQHTTALRSIEVAKTQALAQARDEEQRLRVHLEAVARHGCRIRELLEQVDEQTFLQESQLLQPPGPLGPLTPLQWDEDQQLGDLKQLLSRLCGLLLEEGSHPGAPAKPVDLAPVEAPGPLAPVPSTVCPLRRKLWQNYRNLTFDPVSANRHFYLSRQDQQVKHCRQSRGPGGPGSFELWQVQCAQSFQAGHHYWEVRASDHSVTLGVSYPQLPRCRLGPHTDNIGRGPCSWGLCVQEDSLQAWHNGEAQRLPGVSGRLLGMDLDLASGCLTFYSLEPQTQPLYTFHALFNQPLTPVFWLLEGRTLTLCHQPGAVFPLGPQEEVLS

Results are given in words; binding and its absence hold for the method and conditions named. In cells and extracts the contact can be indirect. A result given as binding can be weak or reduced; the word gives no strength.
